Measurements from article PMC4225485, “The PHD1 finger of KDM5B recognizes unmodified H3K4 during the demethylation of histone H3K4me2/3 by KDM5B” (Protein & Cell, 2014).
Numbering of substitutions follows the chain as printed. No constants are given. Whether binding was seen depends on the method and setting.

Tests used:
[1] = molecular target: T1, PHD1_(KDM5B) W351A mutant (UniProt Q9UGL1); assay: ITC; ITC-200, 20 mmol/L Tris, 150 mmol/L NaCl, 1% Triton X-100, pH 7.5, 25°C; both purified
T1 sequence: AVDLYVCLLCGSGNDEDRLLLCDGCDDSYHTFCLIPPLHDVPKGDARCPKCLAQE

[2] = molecular target: T2, PHD1_(KDM5B) L325A mutant (UniProt Q9UGL1); assay: as above
T2 sequence: T1 sequence with L20A, A46W

B1: unmodified H3K4 peptide (residues 1-10) (peptide)
peptide: ARTKQTARKS
notes: histone H3 N-terminal tail, residues 1-10; also called H3K4me0; H3K4me0 peptide; source: synthetic peptide, bought: GL Biochem Ltd. (Shanghai, China)
[1]
  binding: no binding
[2]
  binding: no binding
